Data as given in patent US10519113B2, “Kinase inhibitor compounds, compositions, and methods of treating cancer” (ICAHN SCHOOL OF MEDICINE AT MOUNT SINAI, priority 2016, dated 2019).
For some assays here: For at least one compound, name, drawing or mass did not settle the structure. Some entries share one result that the patent states for a list of compounds.

Experiments:
[1] = system: ptc>dRet^M955T flies; test: rescue-from-lethality assay in ptc>dRet^M955T flies (drug screening); type: in vivo, Drosophila; conditions: drug in fly food, 25° C., optimal doses
[2] = system: 765>dRet^M955T flies; test: wing venation assay in adult flies; conditions: doses tested

| Structure (SMILES) | rescue of ptc>dRet^M955T flies (rescued adults / total pupae, viability) [1] | ectopic wing venation in 765>dRet^M955T flies [2] |
| --- | --- | --- |
| CNC(=O)c1cc(Oc2ccc(NC(=O)Nc3ccc(Cl)c(C(F)(F)F)c3)c(F)c2)ccn1 [regorafenib, 4-(4-(3-(4-Chloro-3-(trifluoromethyl)phenyl)ureido)-3-fluorophenoxy)-N-methylpicolinamide, reference compound] | less than 5% | – |
| CC(=O)Nc1cccc(-n2c(=O)n(C3CC3)c(=O)c3c(Nc4ccc(I)cc4F)n(C)c(=O)c(C)c32)c1 [trametinib, reference compound] | – | strongly suppressed ectopic venation |
